PubChem BioAssay AID686943 | Drosophila RNAi Screening Center | 2013
Purpose: 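Knockdowns that increase or decrease active ERK after insulin receptor stimulation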 (primary screen). Cells: Drosophila S2R+ haemocyte-like cells expressing YFP-tagged ERK (Rolled). Knock-down reagent: long dsRNA against Drosophila genes. Treatment: insulin stimulation versus unstimulated cells; dose and duration not given. Read-out: 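Per-plate z-scores of phospho-ERK immunostaining normalised to YFP-tagged ERK, measured with and without insulin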. Scale: replicate 1, z-score of dpERK with insulin: higher = more active ERK per ERK-YFP after insulin.
The deposit covers about 23,000 reagents; below is an unselected part of those that have a named target and a result. 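Extra replicates exist only for a retested subset of genes; insulin dose and duration not given; both raised and lowered dpERK matter.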 A plus sign joins genes that one reagent is predicted to hit. Not all columns of the deposit are shown. Not given: the amount of reagent, the time to read-out.

replicate 1, z-score of dpERK with insulin, by gene knocked down and reagent
pon: DRSC18823 -0.06
CG3862: DRSC00631 0.58
SdhBL: DRSC20039 0.22
Argk2: DRSC10483 0.38
Qsox2: DRSC15287 -0.49
TwdlF: DRSC12225 0.63
CG6220: DRSC06969 -0.34
CG14856: DRSC14980 1.18
Mco4: DRSC20061 -0.11
CG6013: DRSC15947 0.1
Ephrin: DRSC17165 -0.43
CG34169: DRSC01579 -1.04
pinta: DRSC14698 -0.08
DENR: DRSC20151 -0.22
CG13445: DRSC09992 -0.25
SecCl: DRSC10887 0.06
bbx + waw: DRSC20575 0.48; DRSC20589 -0.69
simj: DRSC10942 -1.05
Tapdelta: DRSC05946 0.44
rictor: DRSC20071 0.72
CG17364: DRSC10269 -0.83; DRSC10270 -0.06; DRSC22689 -0.6
Gip: DRSC18667 0.13
CR10991: DRSC12156 -0.44
Dlic: DRSC19824 -0.35
TwdlT: DRSC16677 0.02; DRSC21540 0.62
CG13086: DRSC02190 -0.49
p53: DRSC17024 -0.56
CG16826: DRSC02527 1.44
CG33769: DRSC11716 0.76
CG34277 + CG31542: DRSC21544 -0.45
tei: DRSC07616 -0.2
Vps16A: DRSC16422 0.92
Rpi: DRSC04583 0.59
CG18269: DRSC02660 -0.18
CG11560: DRSC09843 -0.23
capt: DRSC00676 0.74; DRSC00806 0.43
Mpcp1: DRSC07337 0.14
Vha55: DRSC16896 -1.05
beg: DRSC10923 -0.12
Ns3: DRSC18607 0.73
Cyp12e1: DRSC16622 0.53
CG31248: DRSC22722 0.23
CG12061: DRSC20715 -1.36
CG14861: DRSC14984 -0.54
CG12299: DRSC02158 -0.18
CG6937 + btn: DRSC16917 0.26
SMC3: DRSC20227 0.05
superdeath: DRSC14868 -0.12
unc-5: DRSC05545 0.54; DRSC07711 1.39; DRSC07712 0.89
CG31777: DRSC00201 0.15

Taken from above:
Entry of capt [DRSC00806] under “replicate 1, z-score of dpERK with insulin”: 0.43
Gip [DRSC18667], replicate 1, z-score of dpERK with insulin = 0.13
Value of Vha55 [DRSC16896] under “replicate 1, z-score of dpERK with insulin”: -1.05
Entry for Ns3 [DRSC18607] in “replicate 1, z-score of dpERK with insulin”: 0.73
